Screening data, single-dose tests

Source: ChEMBL document CHEMBL3988442, “University of Dundee, Small-Polar-MMV Screening Library” (2021).

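Whole-parasite assay of Trypanosoma brucei over 72 hours; the read-out is not stated. Concentration: 30 µM. Direction is inferred from retests: higher values go with stronger inhibition. Values scatter widely below zero; nearly all retest evidence comes from the higher of the two concentrations used. About 64,000 compounds were tested under these conditions; 1.5% (about 940) showed 50% or more at least once.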

Each number is a percent effect as filed.
How 0% and 100% were set is not recorded. Most values in the screen are low, and negative values occur.
The compounds are a random part of those screened.

structure,Percent Effect
O=C(O)C(F)(F)F.O=C(O)C(F)(F)F.[H][C@@]12CN(Cc3ccccn3)C[C@]1([H])C(=O)N(c1cnn(C)c1)C2,-30.5%
[H][C@@]12COC[C@@H](C(=O)N3CCOCC3)[C@]1([H])CN(CC1CCCC1)C2,-60.54%
CN(C)CCOc1cc(NC(=O)COCC(F)(F)F)ccn1,-14.77%
COC(=O)c1cccn1C1CCN(C(=O)c2cc(F)ccc2F)CC1,40.12%
Cc1cc(S(=O)(=O)NCc2cccc(C(=O)N3CCCC3)c2)c(C)s1,8.245%
COC(=O)CCC(=O)N1CCC2(CN(Cc3ccccc3F)C2)C1,-43.35%
Cn1nc(CN2CCCCC2)c2c1CN(C(=O)c1cccc(Cl)c1)C2,-22.71%
CC(C)n1cc(C(=O)N2CCC(n3cc(C(C)(C)C)nn3)CC2)cn1,-0.08011%
Nc1cc(N2CCCC(Cc3ccc(F)cc3F)(C(=O)O)C2)ncn1 (stereo not given),-19.22%
CC(O)CN1CCc2onc(C(c3ccccc3)c3ccccc3)c2C1 (stereo not given),5.503%
CCCc1nc(C(C)(C)NC(=O)C2CC(=O)N(C3CCCC3)C2)no1 (stereo not given),-17.66%
O=C(Nc1nnn[nH]1)c1ccc(I)c(F)c1,-33.95%
Cc1cc(CNc2ccc(C(F)(F)F)cc2)no1,-8.797%
Cc1noc(COCC(=O)N2CCCCC2c2nccs2)n1 (stereo not given),-26.33%
O=C(O)C(F)(F)F.O=C(O)C(F)(F)F.O=C(O)C(F)(F)F.[H][C@@]12CO[C@H](CNc3ncccn3)[C@]1([H])CCN(Cc1ccccn1)C2,-6.943%
COc1ncccc1C(=O)N1CCCC1c1nc(-c2ccccc2)no1 (stereo not given),-10.08%
O=C(O)C(F)(F)F.[H][C@]12CCN(C(=O)Cc3cccs3)C[C@@]1([H])OCCN(C(C)C)C2,-84.63%
CC(C)(C)n1ncc(NCCc2ccccc2C(F)(F)F)c(Cl)c1=O,-22.16%
CCc1ccc(S(=O)(=O)Nc2cc(C(=O)O)c(F)cc2F)s1,-5.746%
COCC(O)CN(C)c1ccnc2cc(F)ccc12 (stereo not given),-11.75%
CNC(=O)C1Cn2ccnc2C2(CCN(C(=O)NC3CCCC3)CC2)O1 (stereo not given),-79.74%
CC[C@@H]1N(Cc2ccc(C)o2)CCC[C@]12CCC(=O)N2CCOC.O=C(O)C(F)(F)F,-78.38%
Cc1nnc(NCCc2nc3ccc(F)cc3n2C)c(C#N)c1C,-35.77%
[H][C@@]12CCN(Cc3nc(C)cs3)C[C@@]1([H])O[C@H](c1nnc(C)[nH]1)C2,-9.363%
O=C(O)C(=O)O.c1ccc2c(c1)SCCC2NCc1ccc(N2CCOCC2)cc1 (stereo not given),-62.68%
CC1CCCN(S(=O)(=O)NCCN/C(O)=C2/N=CC=CC2=O)C1 (stereo not given),-15.29%
Cc1cnn(C2CN(c3nc(-c4ccncc4)nc4c3CCC4)C2)c1,10.11%
COCCN(Cc1nccs1)C(=O)c1c(C)cc(C)[nH]c1=O,-98.63%
Cc1ccc(C(=O)NCC(C)Cn2ccnc2C)c(=O)[nH]1 (stereo not given),-21.62%
COc1ccc(Oc2ncccc2NC(=O)N2CCOCC2C)cc1 (stereo not given),-8.201%
NC(=O)CC1CCN(C(=O)NCC2(c3ccccc3F)CC2)CC1,12.12%
CCc1ccc(O)c(C(=O)N2CCN(CC(=O)N(C)C)CC2)c1,-8.751%
O=C(O)c1ccccc1-n1cnc(CN2CCc3ccccc32)c1,-18.82%
[H][C@@]12CCN(CCN3CCCC3)C[C@]1(C(=O)NCc1ccco1)CCO2,-3.93%
CCOCCC(=O)N1CCCCC1CCn1cccn1 (stereo not given),-15.5%
CCS(=O)(=O)c1ncc(CN(C)Cc2ccccc2Cl)n1CCOC,-38.58%
CC(NC(=O)c1cc(=O)n(C)c(=O)n1C)c1ccccc1-n1cccn1 (stereo not given),-21.77%
COc1ccc(N2CCN(CC(O)c3cc(C)ccc3C)CC2)cc1 (stereo not given),-12.98%
Cc1cc(=O)[nH]c(-n2nc(-c3cccs3)cc2N)n1,-18.7%
O=C(Cc1ccccc1F)N1CCCCC1c1ccn2ccnc2n1 (stereo not given),-17.08%
c1ccc(CN2CCN(Cc3cscn3)CC2)cc1,-9.542%
CN1CCC(O)(CNC(=O)c2cc(COc3cccc(F)c3)[nH]n2)CC1,-39.19%
Cc1cc(C)n(CC(=O)N2CCCC(c3cc4cccnc4[nH]3)C2)n1 (stereo not given),12.44%
COc1cc2nc(C)n(CC(=O)NCCCO)c(=O)c2cc1OC,-34.94%
Cc1ccccc1CS(=O)(=O)CC(=O)N(C)Cc1ccccc1F,-56.78%
CSc1ccsc1C(=O)NS(=O)(=O)c1cnn(C)c1,18.71%
O=C(O)C(F)(F)F.O=C(O)C(F)(F)F.[H][C@]12C[C@@H](Cn3cccn3)N(c3nccs3)[C@@]1([H])CCN(C(=O)CC)C2,-3.444%

4 of the entries, repeated:

Result for CNC(=O)C1Cn2ccnc2C2(CCN(C(=O)NC3CCCC3)CC2)O1 (stereo not given) was -79.74%.
Result for CC(C)(C)n1ncc(NCCc2ccccc2C(F)(F)F)c(Cl)c1=O was -22.16%.
Result for [H][C@@]12CCN(CCN3CCCC3)C[C@]1(C(=O)NCc1ccco1)CCO2 was -3.93%.
Result for O=C(O)C(F)(F)F.O=C(O)C(F)(F)F.[H][C@]12C[C@@H](Cn3cccn3)N(c3nccs3)[C@@]1([H])CCN(C(=O)CC)C2 was -3.444%.